Data as given in article PMC10437088.
No constants are given. Whether binding was seen depends on the method and setting. Binding seen in cells or lysates may run through a third protein. For part of these data: Binding can be weak; no strength is given. Sequences can lack the tags named with a protein.

Sequences of proteins named here, by UniProt entry; tags and fusion partners are left off. A change or cut given only in a name is not applied to a line headed by its entry.
UniProt Q6NZQ0: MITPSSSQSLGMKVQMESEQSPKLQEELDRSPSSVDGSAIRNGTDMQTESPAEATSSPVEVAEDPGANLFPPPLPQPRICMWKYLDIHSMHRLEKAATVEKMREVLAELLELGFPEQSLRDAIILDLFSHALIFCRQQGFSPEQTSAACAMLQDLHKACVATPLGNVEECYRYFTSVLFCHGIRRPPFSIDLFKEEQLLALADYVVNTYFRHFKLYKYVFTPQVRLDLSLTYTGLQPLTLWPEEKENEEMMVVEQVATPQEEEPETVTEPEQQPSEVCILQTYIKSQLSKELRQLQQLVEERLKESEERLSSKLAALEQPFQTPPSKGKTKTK

T1: FLAG-tagged Cabcoco1 overexpressed in HEK293 cells (mouse) (UniProt Q8CDT7)
T1 sequence: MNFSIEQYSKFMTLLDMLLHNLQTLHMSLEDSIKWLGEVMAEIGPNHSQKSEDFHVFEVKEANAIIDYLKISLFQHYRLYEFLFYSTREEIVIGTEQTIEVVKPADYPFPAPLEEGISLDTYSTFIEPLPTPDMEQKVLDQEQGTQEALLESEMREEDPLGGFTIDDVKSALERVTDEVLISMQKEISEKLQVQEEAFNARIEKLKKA


Columns and labels:
[1] = target: T1, FLAG-tagged Cabcoco1 overexpressed in HEK293 cells (mouse); assay: co-IP; proteins (FLAG-tagged Cabcoco1, EGFP-tagged Ccdc189 or truncated CCDC189 fragments) overexpressed in HEK293 cells
[2] = target: CCDC189-EGFP (EGFP-tagged Ccdc189 knock-in allele), in mouse testes (mouse) (UniProt Q6NZQ0); assay: co-IP; anti-GFP antibody, testes of Ccdc189-EGFP mice, detection by blot

Row | binding [1] | binding [2] | Molecule
1 | no binding | – | Ccdc189D3 (with the coiled-coil domain deleted) (mouse) (domain or fragment)
2 | – | binds | CABCOCO1 protein in the testes of Ccdc189-EGFP mice (protein, UniProt Q8CDT7 1-208) MNFSIEQYSKFMTLLDMLLHNLQTLHMSLEDSIKWLGEVMAEIGPNHSQKSEDFHVFEVKEANAIIDYLKISLFQHYRLYEFLFYSTREEIVIGTEQTIEVVKPADYPFPAPLEEGISLDTYSTFIEPLPTPDMEQKVLDQEQGTQEALLESEMREEDPLGGFTIDDVKSALERVTDEVLISMQKEISEKLQVQEEAFNARIEKLKKA
3 | – | binds | IFT88 protein in the testes of Ccdc189-EGFP mice (protein, UniProt Q61371 1-824) MENVHLAPETDEDDLYSGFNDYNPAYDTEELENDTGFQQAVRTSHGRRPPVTAKIPSTAVSRPIATGYGSKTSLTSSMGRPMTGTIQDGVARPMTAVRAAGFSKAALRGSAFDPLGQSRGPAPPLEAKNEDSPEEKIRQLEKKVNELVEESCIANSCGDLKLALEKAKDAGRKERVLVRQREQVTSPENINLDLTYSVLFNLASQYSANEMYAEALNTYQVIVKNKMFSNAGRLKVNMGNIYLKQRNYSKAIKFYRMALDQIPSVHKEMRIKIMQNIGITFIKTGQYSDAINSFEHIMSMAPSLKAGFNLILSCFAIGDREKMKKAFQKLIAVPLEIDEDDKYISPSDDPHTNLLIEAIKNDHLRQMERERKAMAEKYIMTAAKLIAPVIEASFAVGYNWCVEVVKASQYVELANDLEINKAITYLRQKDFNQAVDTLKMFEKKDSRVKSAAATNLSFLYYLENEFAQASSYADLAVNSDRYNPSALTNKGNTVFANGDYEKAAEFYKEALRNDSSCTEALYNIGLTYKKLNRLDEALDSFLKLHAILRNSAQVLCQIANIYELMEDPNQAIEWLMQLISVVPTDSQALSKLGELYDSEGDKSQAFQYYYESYRYFPSNIEVIEWLGAYYIDTQFCEKAIQYFERASLIQPTQVKWQLMVASCFRRSGNYQKALDTYKEIHRKFPENVECLRFLVRLCTDIGLKEVQEYATKLKRLEKMKEMREQRIKSGRDSSGGSRSKREGSAGSDSGQNNSASSKSERLSAKLRALPGTDEPYESSGNKEIDASYVDPLGPQIERPKTAAKKRIDEDDFADEELGDDLLPE
